Test results: PMC6115016

Experiments:
[1] = molecular target: GST-tagged fragment of human SCRIB containing the PDZ domain (human); assay: pull-down; GST-tagged SCRIB fragments held on glutathione sepharose beads, incubated with RWPE-1 cell lysate overnight at 4°C, immunoblot; only the target purified
[2] = molecular target: E-cadherin (human (endogenous in RWPE-1)); assay: co-IP; endogenous proteins in RWPE-1 cell lysate (50mM Tris-HCl, 150mM NaCl, 1mM EDTA, 0.25% TritonX-100, pH 7.4), 1 ug primary antibody 6 h at 4°C, Protein G-Agarose, immunoblot; also compared in E-cadherin knockdown and SCRIB knockdown cells

binding [1]: binds
binding [2]: binds
B1: leucine-glycine-asparagine repeat protein (LGN) (protein, UniProt P81274 1-684)
chain: MEENLISMREDHSFHVRYRMEASCLELALEGERLCKSGDCRAGVSFFEAAVQVGTEDLKTLSAIYSQLGNAYFYLHDYAKALEYHHHDLTLARTIGDQLGEAKASGNLGNTLKVLGNFDEAIVCCQRHLDISRELNDKVGEARALYNLGNVYHAKGKSFGCPGPQDVGEFPEEVRDALQAAVDFYEENLSLVTALGDRAAQGRAFGNLGNTHYLLGNFRDAVIAHEQRLLIAKEFGDKAAERRAYSNLGNAYIFLGEFETASEYYKKTLLLARQLKDRAVEAQSCYSLGNTYTLLQDYEKAIDYHLKHLAIAQELNDRIGEGRACWSLGNAYTALGNHDQAMHFAEKHLEISREVGDKSGELTARLNLSDLQMVLGLSYSTNNSIMSENTEIDSSLNGVRPKLGRRHSMENMELMKLTPEKVQNWNSEILAKQKPLIAKPSAKLLFVNRLKGKKYKTNSSTKVLQDASNSIDHRIPNSQRKISADTIGDEGFFDLLSRFQSNRMDDQRCCLQEKNCHTASTTTSSTPPKMMLKTSSVPVVSPNTDEFLDLLASSQSRRLDDQRASFSNLPGLRLTQNSQSVLSHLMTNDNKEADEDFFDILVKCQGSRLDDQRCAPPPATTKGPTVPDEDFFSLILRSQGKRMDEQRVLLQRDQNRDTDFGLKDFLQNNALLEFKNSGKKSADH

Results are given in words; binding and its absence hold for the method and conditions named. Binding seen in cells or lysates may run through a third protein. A result given as binding can be weak or reduced; the word gives no strength.
